Measured values from PMC11500499, “Molecular dissection of the chromosome partitioning protein RocS and regulation by phosphorylation”.

By UniProt entry, the sequences of proteins in these tests, tags left out.
UniProt A0A0H2ZKY7: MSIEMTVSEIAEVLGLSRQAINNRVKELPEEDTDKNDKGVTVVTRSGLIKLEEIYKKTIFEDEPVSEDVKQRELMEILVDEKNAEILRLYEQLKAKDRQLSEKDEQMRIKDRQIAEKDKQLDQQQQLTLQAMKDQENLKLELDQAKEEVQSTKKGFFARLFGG

Target: RocS (Regulator of Chromosome Segregation), full length, fused to the T18 or T25 fragment of CyaA (S. pneumoniae R6)
Test: two-hybrid; bacterial adenylate cyclase two-hybrid (BACTH, Euromedex kit) in E. coli BTH101; N-terminal T18 and T25 fusions co-transformed; LB-agar with ampicillin, kanamycin, IPTG 0.5 mM and X-gal 100 µg/mL; room temperature; photos at 24, 48 and 72 h, blue colour = interaction

Substance: RocS (Regulator of Chromosome Segregation), full length, fused to the T18 or T25 fragment of CyaA (from UniProt A0A0H2ZKY7 1-163)
- binding: binds

No constants are given. Whether binding was seen depends on the method and setting. A result given as binding can be weak or reduced; the word gives no strength.
